## Library screen at single concentrations

Sequences of proteins named here, by UniProt entry; tags and fusion partners are left off. Residues count along the entry.
UniProt Q8IDJ8, 1-583: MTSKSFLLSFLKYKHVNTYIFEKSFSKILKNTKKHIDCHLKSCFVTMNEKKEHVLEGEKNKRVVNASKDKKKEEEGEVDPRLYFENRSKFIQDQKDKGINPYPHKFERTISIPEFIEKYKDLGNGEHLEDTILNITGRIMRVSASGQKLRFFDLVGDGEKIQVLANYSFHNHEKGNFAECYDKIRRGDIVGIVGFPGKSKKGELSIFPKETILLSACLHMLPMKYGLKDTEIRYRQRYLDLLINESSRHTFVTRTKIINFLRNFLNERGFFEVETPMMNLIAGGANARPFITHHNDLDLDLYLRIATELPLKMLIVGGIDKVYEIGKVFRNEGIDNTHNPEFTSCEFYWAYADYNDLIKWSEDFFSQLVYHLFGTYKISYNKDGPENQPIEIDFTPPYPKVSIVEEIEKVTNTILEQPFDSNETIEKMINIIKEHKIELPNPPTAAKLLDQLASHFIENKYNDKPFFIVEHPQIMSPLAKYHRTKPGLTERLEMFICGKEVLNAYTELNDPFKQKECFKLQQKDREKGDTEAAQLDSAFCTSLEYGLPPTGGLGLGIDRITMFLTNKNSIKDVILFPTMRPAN
UniProt A4I591, 1-473: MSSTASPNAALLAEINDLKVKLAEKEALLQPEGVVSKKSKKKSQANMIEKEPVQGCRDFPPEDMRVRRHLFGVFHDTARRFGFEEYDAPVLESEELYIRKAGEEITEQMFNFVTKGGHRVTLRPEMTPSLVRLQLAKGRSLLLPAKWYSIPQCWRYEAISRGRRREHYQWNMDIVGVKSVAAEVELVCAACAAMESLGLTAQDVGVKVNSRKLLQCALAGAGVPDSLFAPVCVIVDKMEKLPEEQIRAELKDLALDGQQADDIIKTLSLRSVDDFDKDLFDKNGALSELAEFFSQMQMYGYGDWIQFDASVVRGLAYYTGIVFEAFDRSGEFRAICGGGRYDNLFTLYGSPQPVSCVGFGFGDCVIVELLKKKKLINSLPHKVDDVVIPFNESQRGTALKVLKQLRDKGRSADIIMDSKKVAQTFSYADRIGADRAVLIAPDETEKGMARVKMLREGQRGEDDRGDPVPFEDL

T. brucei: 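Whole-parasite assay of Trypanosoma brucei over 72 hours; the read-out is not stated. Compounds at 30 µM. Direction is inferred from retests: higher values go with stronger inhibition. Values scatter widely below zero; nearly all retest evidence comes from the higher of the two concentrations used. Size under these conditions: about 64,000 compounds, about 940 of them at 50% or above in at least one test.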
PfKRS1: 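Enzyme assay of the cytosolic lysyl-tRNA synthetase in 384-well plates, read by luminescence. Target: Lysine-tRNA ligase, Plasmodium falciparum 3D7 (UniProt Q8IDJ8). Tested at 30 µM. Higher reads as stronger inhibition, judged from the few compounds that gave an IC50. Size under these conditions: about 69,000 compounds, about 49 of them at 50% or above in at least one test.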
LiHisRS: 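Enzyme assay of histidyl-tRNA synthetase; the read-out is not stated. Target: Histidine-tRNA ligase, Leishmania infantum (UniProt A4I591). Compounds at 30 µM. The record gives no direction; compounds that gave an IC50 in retests scored well above the rest, so higher reads as stronger inhibition. The assay is labelled LdHisRS but filed under L. infantum. Size under these conditions: about 69,000 compounds, about 410 of them at 50% or above in at least one test.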
Toxoplasma: 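Assay of Toxoplasma gondii numbers, read through their beta-galactosidase reporter with a colour substrate. Tested at 10 µM. The record gives no direction; the compounds picked for IC50 retests had high values, so higher reads as fewer parasites. Of about 67,000 compounds tested this way, about 260 (0.38%) reached 50% or more in at least one test.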

Results are given as percent effect. The record does not define 0% and 100%; most values in the screen are far below 50% and negative numbers occur (in some assays of this library far below -100). The compounds are a random part of those screened. A dash means the value is not listed here; it may have been measured.

OCCc1ccccc1-n1ccnc1-c1cn(C2CCNCC2)nn1 gave T. brucei: -16.97%; PfKRS1: 5.914%; LiHisRS: 19.35%; Toxoplasma: 15.9%.
Cc1ccc(N2CCO[C@@H]3CN(Cc4cccc(C)n4)CC[C@@H]3C2)nn1 gave PfKRS1: -0.5932%; LiHisRS: 7.895%.
Cn1cc(C2CC(=O)NC23CCN(Cc2cccc(F)c2)CC3)cn1 (centres unmarked) gave PfKRS1: 2.029%; LiHisRS: 18.06%.
CC(C)(O)CN1CCN(C(=O)c2cccn2Cc2ccccc2)CC1 gave T. brucei: 7.543%; PfKRS1: 4.823%; LiHisRS: 9.91%; Toxoplasma: 4.318%.
Cc1[nH]ncc1C(C)NCc1cccnc1 (centres unmarked) gave T. brucei: -15.33%; PfKRS1: 0.155%; LiHisRS: 10.75%; Toxoplasma: -2.713%.
CC(=O)NCC1CN(c2ccc3c(Cl)ccnc3c2F)CCO1 (centres unmarked) gave T. brucei: -15.68%; PfKRS1: 5.392%; LiHisRS: 25.83%; Toxoplasma: 1.256%.
CN(C)CCO[C@H]1C[C@@H](O)C12CCN(c1cnccn1)CC2 gave T. brucei: 12.91%; PfKRS1: 6.88%; LiHisRS: 8.264%; Toxoplasma: -2.548%.
CCCn1c(C)c(CC(=O)NC(C)CO)c2c1CC(C)(C)CC2=O (centres unmarked) gave T. brucei: -12.97%; PfKRS1: 2.082%; LiHisRS: 10.59%; Toxoplasma: 7.525%.
COc1ccccc1CN1CC[C@H]2C[C@@H](C(=O)N3CCCC3)O[C@H]2C1 gave PfKRS1: 4.446%; LiHisRS: 18.45%.
CC1=NC2(CCN(CC(C)c3ccccc3)CC2)C(=O)N1 (centres unmarked) gave T. brucei: -11.59%; PfKRS1: 2.224%; LiHisRS: 8.333%; Toxoplasma: 2.754%.
COc1ccc(CN(C)C(=O)NCc2c(C)cc(C)[nH]c2=O)cc1 gave T. brucei: 15.32%; PfKRS1: 2.873%; LiHisRS: 7.576%; Toxoplasma: -0.06277%.
Cc1nn(C)c(C)c1OCC(=O)NCC(O)Cc1ccccc1 (centres unmarked) gave T. brucei: 10.82%; PfKRS1: 1.411%; LiHisRS: 13.43%; Toxoplasma: -4.485%.
Cc1noc(C)c1CC(=O)NCC1(O)CCCN(c2ccccn2)C1 (centres unmarked) gave T. brucei: -15.03%; PfKRS1: -1.831%; LiHisRS: 12.77%; Toxoplasma: -10.85%.
Cc1noc(Cl)c1CCC(=O)N1CCc2sccc2C1 gave T. brucei: 27.81%; PfKRS1: 8.027%; LiHisRS: 25.68%; Toxoplasma: 18.7%.
COCc1ncn2c1CN(S(=O)(=O)c1cccc(F)c1)CC2 gave T. brucei: -64.39%; PfKRS1: 7.389%; LiHisRS: 26.03%; Toxoplasma: 1.025%.
CCCC(=O)NCC(=O)NC(c1ccc(Cl)cc1)C(F)(F)F (centres unmarked) gave T. brucei: -22.64%; PfKRS1: -0.2738%; LiHisRS: 4.762%; Toxoplasma: 4.543%.
[H][C@@]12CCN(C(=O)c3sccc3NC(C)=O)C[C@@]([H])(CC1)N2C gave T. brucei: -33.4%; Toxoplasma: 3.128%.
NC(=O)C1(Cc2ccccc2-c2cncnc2)CCCNC1 (centres unmarked) gave T. brucei: -3.769%; PfKRS1: 2.186%; LiHisRS: 9.79%; Toxoplasma: 2.589%.
CCN(CC)Cc1nc2c(o1)CN(S(=O)(=O)c1cccs1)C2 gave PfKRS1: 4.051%; LiHisRS: 7.921%.
CCc1n[nH]c(C2CN(C(=O)c3ccc4c(c3)CCCC4)CCO2)n1 (centres unmarked) gave PfKRS1: 0.9483%; LiHisRS: 13.27%; Toxoplasma: 22.63%.
COCCn1ccc(=O)c(OCC(=O)Nc2cccc(C(C)=O)c2)c1C gave T. brucei: 27.15%; PfKRS1: 5.843%; LiHisRS: 13.59%; Toxoplasma: 0.3586%.
Cn1c(C(F)(F)F)nn(CCNC(=O)c2nc3ccccc3s2)c1=O gave T. brucei: -11.92%; PfKRS1: 4.008%; LiHisRS: 4.959%; Toxoplasma: 0.3167%.
COc1ccc(C(=O)C2CCCN(Cc3ccncc3)C2)c(OC)c1 (centres unmarked) gave T. brucei: 4.937%; PfKRS1: 1.671%; LiHisRS: 13.33%; Toxoplasma: -2.635%.
CCN(CC)C(=O)[C@@H]1C[C@H](N)CN1c1noc(-c2ccccc2)n1 gave T. brucei: -42.89%; PfKRS1: 1.998%; LiHisRS: 24.18%; Toxoplasma: 2.516%.
CCN(CC)C(=O)CCNc1cncc(-n2nc(C)cc2C)n1 gave T. brucei: -45.97%; PfKRS1: 5.102%; LiHisRS: 9.434%; Toxoplasma: 0.7974%.
Cn1ncc(N2CCC(CNC3Cc4ccccc4C3)C2)cc1=O (centres unmarked) gave T. brucei: -50.85%; PfKRS1: -2.246%; LiHisRS: -20%; Toxoplasma: -14.06%.
CN1CCN(C(=O)Cc2ccsc2)Cc2cccnc21.O=C(O)C(F)(F)F gave T. brucei: -29.83%; Toxoplasma: 0.06028%.
O=C(O)c1cnc(N2CCC(O)CC2)nc1COc1cccc(F)c1 gave T. brucei: 1.318%; PfKRS1: 7.647%; LiHisRS: 19.1%; Toxoplasma: 10.87%.
O=C(C1CCOCC1)N1CCc2ncc(CN3CCCC3)n2CC1 gave PfKRS1: 2.933%; LiHisRS: 16%.
CN(C)Cc1nnc2n1CCN(c1cnccn1)CC2.O=C(O)C(F)(F)F gave Toxoplasma: -7.952%.
c1cc(-c2noc(CN3CCn4c(nnc4C4CC4)C3)n2)co1 gave T. brucei: -27.36%; PfKRS1: 1.758%; LiHisRS: -31.91%; Toxoplasma: -10.75%.
CCOC(=O)N1CCC(C(=O)c2cc(F)ccc2F)CC1 gave T. brucei: -11.11%; PfKRS1: -2.486%; LiHisRS: 8.8%; Toxoplasma: -21.59%.

Once more, the final 4:

SMILES,T. brucei,PfKRS1,LiHisRS,Toxoplasma
O=C(C1CCOCC1)N1CCc2ncc(CN3CCCC3)n2CC1,-,2.933,16,-
CN(C)Cc1nnc2n1CCN(c1cnccn1)CC2.O=C(O)C(F)(F)F,-,-,-,-7.952
c1cc(-c2noc(CN3CCn4c(nnc4C4CC4)C3)n2)co1,-27.36,1.758,-31.91,-10.75
CCOC(=O)N1CCC(C(=O)c2cc(F)ccc2F)CC1,-11.11,-2.486,8.8,-21.59

Source: ChEMBL document CHEMBL3988442, “University of Dundee, Small-Polar-MMV Screening Library” (2021).